PubChem BioAssay AID686943 | Drosophila RNAi Screening Center, 2013
The deposit covers about 23,000 reagents; below is a random part of those with a known target gene and a result. 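Extra replicates exist only for a retested subset of genes; insulin dose and duration not given; both raised and lowered dpERK matter.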 Names joined by + are all predicted targets of the reagent. Not stated in the record: the amount of reagent, the time to read-out.

- Aim: 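Fly genes whose loss alters ERK activation after insulin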 (primary screen)
- System: Drosophila S2R+ haemocyte-like cells expressing YFP-tagged ERK (Rolled)
- Reagent: long dsRNA against Drosophila genes
- Challenge: insulin stimulation versus unstimulated cells; dose and duration not given
- Measurement: 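Per-plate z-scores of phospho-ERK immunostaining normalised to YFP-tagged ERK, measured with and without insulin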
- Direction: replicate 1, z-score of dpERK with insulin and replicate 2, z-score of dpERK with insulin: higher = more active ERK per ERK-YFP after insulin; replicate 1, z-score of dpERK under basal conditions: higher = more basal active ERK per ERK-YFP; replicate 1, z-score of ERK-YFP with insulin: higher = more YFP-tagged ERK signal

no.	gene	amplicon	replicate 1, z-score of dpERK with insulin	replicate 2, z-score of dpERK with insulin	replicate 1, z-score of dpERK under basal conditions	replicate 1, z-score of ERK-YFP with insulin
1	RpS24	DRSC04414	-2.98	-1.62	-2.61	-2.08
2	Idi	DRSC15918	-0.86	0.48	0.56	0.03
3	CG11396	DRSC11654	0.16	1.09	-0.45	1.05
4	CG12746	DRSC12218	0.5	-0.07	-0.36	0.04
5	His2Av	DRSC16702	0.62	0.47	-1.02	1.24
6	side-II	DRSC01427	0.4	0.29	0.47	-0.25
7	side-II	DRSC01429	-0.35	0.03	0.92	0.57
8	side-II	DRSC01913	0.26	0	-0.27	0.43
9	side-II	DRSC01932	0.05	0	-0.39	-0.64
10	side-II	DRSC02480	-0.02	0.34	1.24	0.38
11	side-II	DRSC22508	-0.17	-0.12	-0.37	1.46
12	phr	DRSC07662	1.1	0	-1.24	-0.08
13	Polr1D + DCTN6-p27	DRSC02094	0.24	0.15	-2.24	-0.11
14	S2P	DRSC07311	0.06	0.57	0.49	0.7
15	Pp1-Y2	DRSC21608	-2.93	0.76	0.14	0.9
16	Twdlalpha	DRSC19914	-1.41	-1.4	0.11	1.71
17	CG15822	DRSC08482	-1.23	-1.48	-0.28	0.57
18	CG15822	DRSC08483	-0.65	-0.33	-0.02	0.23
19	trem	DRSC15575	-0.05	0.11	-0.57	0.17
20	AMPdeam	DRSC18996	0.73	0.32	1.04	-0.16
21	AMPdeam	DRSC19366	-0.66	-0.13	-0.52	0.65
22	AMPdeam	DRSC19368	2.11	4.01	2	0.24
23	AMPdeam	DRSC19727	-0.53	2.08	0.92	1.7

4 entries from above, showing only “replicate 2, z-score of dpERK with insulin”:
side-II [DRSC01932]: 0
side-II [DRSC02480]: 0.34
side-II [DRSC22508]: -0.12
phr [DRSC07662]: 0

More results follow.
no.	gene	amplicon	replicate 1, z-score of dpERK with insulin	replicate 2, z-score of dpERK with insulin	replicate 1, z-score of dpERK under basal conditions	replicate 1, z-score of ERK-YFP with insulin
24	CG4955	DRSC19927	0.14	1.36	-0.04	0.18
25	xmas	DRSC21306	-0.5	0.96	2.33	-0.76
26	xmas	DRSC22178	0.11	1.61	1.2	-0.73
27	CG10431	DRSC02055	0.74	0.58	0.98	0.33
28	imd	DRSC05928	-0.39	-0.42	0.62	-0.75
29	g	DRSC20335	-0.89	0.01	0.25	-0.33
30	Pcyt1	DRSC08157	-1.84	-1.48	-1.72	0.6
31	Fs(2)Ket	DRSC03328	-2.57	-4.58	-1.71	-4.79
32	E(spl)m5-HLH	DRSC16695	-0.31	-0.12	1.12	0.53
33	CG3894	DRSC01762	-0.01	0.19	0.65	-0.25
34	CG3894	DRSC04012	0.34	-0.18	-0.48	0.21
35	CG3894	DRSC04429	-0.97	-0.38	1.18	1.21
36	CG4328	DRSC10410	-4.23	-2.9	-1.75	-2.85
37	EbpII	DRSC04637	0.32	0.08	0.29	0.32
38	EbpII	DRSC22484	-0.37	0.88	2.03	-0.81
39	Sms	DRSC10408	1.14	0.27	1.01	-0.17
